Measured values: the supplement of paper PMC8728848
The list shows a part of the results.

What was measured:
Test in all cases: glycan array binding signal (z-score within array); higher = stronger binding
Details in all cases: glycan notation: IUPAC condensed, linker removed
Kdn(a2-3)Gal(b1-4)Glc = molecular target: Kdn(a2-3)Gal(b1-4)Glc
Summary of the method: (§1)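 From the Consortium for Functional Glycomics database, 3228 arrays were curated, keeping only those whose protein sequence was available. Binding is given as a within-array Z-score averaged across arrays sharing a protein sequence and across linkers. Negative Z-scores can be read as non-binding.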

Kdn(a2-3)Gal(b1-4)GlcNAc = molecular target: Kdn(a2-3)Gal(b1-4)GlcNAc
Summary of the method: as §1

Kdn(a2-6)Gal(b1-4)GlcNAc = molecular target: Kdn(a2-6)Gal(b1-4)GlcNAc
Summary of the method: as §1

[1] = molecular target: Man(a1-2)Man(a1-2)Man(a1-3)Man
Summary of the method: as §1

[2] = molecular target: Man(a1-2)Man(a1-2)Man(a1-6)[Man(a1-3)]Man
Summary of the method: as §1

Man(a1-2)Man(a1-3)Man = molecular target: Man(a1-2)Man(a1-3)Man
Summary of the method: as §1

[3] = molecular target: Man(a1-2)Man(a1-3)[Man(a1-2)Man(a1-6)]Man
Summary of the method: as §1

[4] = molecular target: Man(a1-2)Man(a1-3)[Man(a1-2)Man(a1-6)]Man(a1-6)[Man(a1-2)Man(a1-2)Man(a1-3)]Man
Summary of the method: as §1

[5] = molecular target: Man(a1-2)Man(a1-3)[Man(a1-2)Man(a1-6)]Man(a1-6)[Man(a1-2)Man(a1-2)Man(a1-3)]Man(b1-4)GlcNAc(b1-4)GlcNAc
Summary of the method: as §1

[6] = molecular target: Man(a1-2)Man(a1-3)[Man(a1-6)]Man(a1-6)[Man(a1-2)Man(a1-3)]Man(b1-4)GlcNAc(b1-4)GlcNAc
Summary of the method: as §1

[7] = molecular target: Man(a1-2)Man(a1-6)[Man(a1-3)]Man(a1-6)[Man(a1-2)Man(a1-2)Man(a1-3)]Man
Summary of the method: as §1

[8] = molecular target: Man(a1-2)Man(a1-6)[Man(a1-3)]Man(a1-6)[Man(a1-2)Man(a1-2)Man(a1-3)]Man(b1-4)GlcNAc(b1-4)GlcNAc
Summary of the method: as §1

Man(a1-3)[Man(a1-6)]Man = molecular target: Man(a1-3)[Man(a1-6)]Man
Summary of the method: as §1

[9] = molecular target: Man(a1-3)[Man(a1-6)]Man(a1-6)[Man(a1-2)Man(a1-3)]Man(b1-4)GlcNAc(b1-4)GlcNAc
Summary of the method: as §1

[10] = molecular target: Man(a1-3)[Man(a1-6)]Man(a1-6)[Man(a1-3)]Man
Summary of the method: as §1

[11] = molecular target: Man(a1-3)[Man(a1-6)]Man(b1-4)GlcNAc(b1-4)GlcNAc
Summary of the method: as §1

[12] = molecular target: Man(a1-3)[Man(a1-6)]Man(b1-4)GlcNAc(b1-4)[Fuc(a1-6)]GlcNAc
Summary of the method: as §1

Man(a1-6)Man = molecular target: Man(a1-6)Man
Summary of the method: as §1

Man(b1-4)GlcNAc = molecular target: Man(b1-4)GlcNAc
Summary of the method: as §1

MurNAc(b1-4)GlcNAc = molecular target: MurNAc(b1-4)GlcNAc
Summary of the method: as §1

Neu5Ac(a2-3)Gal = molecular target: Neu5Ac(a2-3)Gal
Summary of the method: as §1

[13] = molecular target: Neu5Ac(a2-3)Gal(b1-3)GalNAc
Summary of the method: as §1

[14] = molecular target: Neu5Ac(a2-3)Gal(b1-3)GalNAc(b1-3)Gal(a1-4)Gal(b1-4)Glc
Summary of the method: as §1

[15] = molecular target: Neu5Ac(a2-3)Gal(b1-3)GalNAc(b1-4)[Neu5Ac(a2-3)]Gal(b1-4)Glc
Summary of the method: as §1

[16] = molecular target: Neu5Ac(a2-3)Gal(b1-3)GalNAc(b1-4)[Neu5Ac(a2-8)Neu5Ac(a2-3)]Gal(b1-4)Glc
Summary of the method: as §1

[17] = molecular target: Neu5Ac(a2-3)Gal(b1-3)GalNAc6S
Summary of the method: as §1

[18] = molecular target: Neu5Ac(a2-3)Gal(b1-3)GlcNAc
Summary of the method: as §1

[19] = molecular target: Neu5Ac(a2-3)Gal(b1-3)GlcNAc(b1-2)Man
Summary of the method: as §1

[20] = molecular target: Neu5Ac(a2-3)Gal(b1-3)GlcNAc(b1-2)Man(a1-3)[GlcNAc(b1-4)][Neu5Ac(a2-3)Gal(b1-3)GlcNAc(b1-2)Man(a1-6)]Man(b1-4)GlcNAc(b1-4)GlcNAc
Summary of the method: as §1

[21] = molecular target: Neu5Ac(a2-3)Gal(b1-3)GlcNAc(b1-2)Man(a1-3)[Neu5Ac(a2-3)Gal(b1-3)GlcNAc(b1-2)Man(a1-6)]Man(b1-4)GlcNAc(b1-4)GlcNAc
Summary of the method: as §1

[22] = molecular target: Neu5Ac(a2-3)Gal(b1-3)GlcNAc(b1-3)Gal(b1-3)GlcNAc
Summary of the method: as §1

[23] = molecular target: Neu5Ac(a2-3)Gal(b1-3)GlcNAc(b1-3)Gal(b1-4)GlcNAc
Summary of the method: as §1

[24] = molecular target: Neu5Ac(a2-3)Gal(b1-3)GlcNAc(b1-3)GalNAc
Summary of the method: as §1

[25] = molecular target: Neu5Ac(a2-3)Gal(b1-3)GlcNAc(b1-4)Gal(b1-4)Glc
Summary of the method: as §1

[26] = molecular target: Neu5Ac(a2-3)Gal(b1-3)GlcNAc(b1-6)GalNAc
Summary of the method: as §1

[27] = molecular target: Neu5Ac(a2-3)Gal(b1-3)GlcNAc6S
Summary of the method: as §1

[28] = molecular target: Neu5Ac(a2-3)Gal(b1-3)[Fuc(a1-4)]GlcNAc
Summary of the method: as §1

B1: PX14351B-bth-512-36-512 (Bacteroides thetaiotaomicron) (protein)
chain: ASETQQWKTLEDTRSALMGVYGLTRAALADNNTHWICGDLRKGDFTVYKRSDLQAVSDNELNKPYDLLKKVSNWRRFYAVINAASVFMEKAPRTVELDRSYSEQNLKYDIAQVRALRAFAYFYMVRIWGDVPLVTYSYDNGTFPSMPRTDAQTVLSYAKAELLTAIEDLPYQYGTQTNLYYGSYGAQWQGKLFNKLSAYSVLAHICAWQGNYAEAETYSAFIIDHASEINAKYTSIADLTSETGLFYSNASVKGSRILGFNFAHNDNEATQSGHLEQLTLAYPLVQKSYPEIYISKDSLFSIFTNFDDLRFGIIDTIKYSSYYVQNLNEETPVFSKIKIIQDGSAKDNDFGVFGSSIVFTRLEDITLLRAEALCALNRSTEAVSYLNMIRTNRGLREVSFKKDFGNNRESLIAEIFEERRRELMGEGWRWYDLVRRQKLMKDNEAFLRLISSGGIYWPVSEDIITANSQIEQNEFWK
glycan array binding signal (z-score) (Kdn(a2-3)Gal(b1-4)Glc): -0.156
glycan array binding signal (z-score) (Kdn(a2-3)Gal(b1-4)GlcNAc): -0.028
glycan array binding signal (z-score) (Kdn(a2-6)Gal(b1-4)GlcNAc): -0.171
glycan array binding signal (z-score) [1]: -0.152
glycan array binding signal (z-score) [2]: -0.353
glycan array binding signal (z-score) (Man(a1-2)Man(a1-3)Man): -0.28
glycan array binding signal (z-score) [3]: -0.34
glycan array binding signal (z-score) [4]: -0.251
glycan array binding signal (z-score) [5]: -0.183
glycan array binding signal (z-score) [6]: -0.379
glycan array binding signal (z-score) [7]: -0.363
glycan array binding signal (z-score) [8]: -0.248
glycan array binding signal (z-score) (Man(a1-3)[Man(a1-6)]Man): -0.338
glycan array binding signal (z-score) [9]: -0.223
glycan array binding signal (z-score) [10]: -0.077
glycan array binding signal (z-score) [11]: -0.362
glycan array binding signal (z-score) [12]: -0.118
glycan array binding signal (z-score) (Man(a1-6)Man): -0.091
glycan array binding signal (z-score) (Man(b1-4)GlcNAc): 0.141
glycan array binding signal (z-score) (MurNAc(b1-4)GlcNAc): -0.268
glycan array binding signal (z-score) (Neu5Ac(a2-3)Gal): -0.212
glycan array binding signal (z-score) [13]: -0.239
glycan array binding signal (z-score) [14]: 0.331
glycan array binding signal (z-score) [15]: -0.236
glycan array binding signal (z-score) [16]: -0.112
glycan array binding signal (z-score) [17]: -0.377
glycan array binding signal (z-score) [18]: -0.119
glycan array binding signal (z-score) [19]: 0.134
glycan array binding signal (z-score) [20]: -0.221
glycan array binding signal (z-score) [21]: -0.326
glycan array binding signal (z-score) [22]: -0.346
glycan array binding signal (z-score) [23]: -0.273
glycan array binding signal (z-score) [24]: 0.034
glycan array binding signal (z-score) [25]: -0.301
glycan array binding signal (z-score) [26]: -0.15
glycan array binding signal (z-score) [27]: -0.085
glycan array binding signal (z-score) [28]: 0.092
